According to US20190030072A1:
These are yes or no findings as the source states them, for the method shown. Some binding calls cover weakened binding; strength is not graded here.

Protein sequences, listed by entry. Tags and fused reporters are not part of them. Residues count along the entry.
UniProt P46379: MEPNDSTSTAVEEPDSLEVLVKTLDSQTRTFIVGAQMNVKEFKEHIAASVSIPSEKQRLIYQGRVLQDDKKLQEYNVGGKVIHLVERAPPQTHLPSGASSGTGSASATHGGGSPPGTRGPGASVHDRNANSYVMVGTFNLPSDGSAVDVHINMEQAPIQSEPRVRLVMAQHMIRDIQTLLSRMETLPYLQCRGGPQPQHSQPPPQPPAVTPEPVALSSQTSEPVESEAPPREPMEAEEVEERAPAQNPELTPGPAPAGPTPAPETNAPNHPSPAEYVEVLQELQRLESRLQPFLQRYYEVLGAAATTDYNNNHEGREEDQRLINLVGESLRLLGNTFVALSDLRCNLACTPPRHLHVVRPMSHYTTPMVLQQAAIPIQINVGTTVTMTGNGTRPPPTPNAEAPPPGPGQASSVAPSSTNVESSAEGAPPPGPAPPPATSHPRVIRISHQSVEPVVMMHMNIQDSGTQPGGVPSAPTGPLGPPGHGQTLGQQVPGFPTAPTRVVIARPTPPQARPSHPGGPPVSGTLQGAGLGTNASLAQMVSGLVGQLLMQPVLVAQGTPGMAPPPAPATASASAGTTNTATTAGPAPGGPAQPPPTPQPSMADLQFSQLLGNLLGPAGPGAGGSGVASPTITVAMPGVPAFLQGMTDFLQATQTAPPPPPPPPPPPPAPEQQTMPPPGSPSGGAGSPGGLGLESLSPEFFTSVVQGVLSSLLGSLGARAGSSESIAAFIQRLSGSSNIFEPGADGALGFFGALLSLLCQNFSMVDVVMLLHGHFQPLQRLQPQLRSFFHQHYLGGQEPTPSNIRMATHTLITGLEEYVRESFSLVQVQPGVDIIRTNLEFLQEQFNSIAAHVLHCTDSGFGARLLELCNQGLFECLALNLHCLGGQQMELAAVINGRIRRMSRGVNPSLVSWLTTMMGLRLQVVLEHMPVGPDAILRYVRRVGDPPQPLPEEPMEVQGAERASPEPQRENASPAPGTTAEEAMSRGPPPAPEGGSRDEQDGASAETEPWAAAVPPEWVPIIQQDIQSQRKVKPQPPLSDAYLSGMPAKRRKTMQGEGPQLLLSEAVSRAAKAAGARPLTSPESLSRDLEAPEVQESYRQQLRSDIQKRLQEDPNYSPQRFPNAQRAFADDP
UniProt O14931, residues 19-135: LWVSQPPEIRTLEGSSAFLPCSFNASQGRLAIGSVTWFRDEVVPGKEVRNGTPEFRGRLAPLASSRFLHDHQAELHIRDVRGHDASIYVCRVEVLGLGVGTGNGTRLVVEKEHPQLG

Biological target: BAG6 on the surface of extracellular vesicles derived from human melanoma cells (D04mel) (human) (UniProt P46379)
Assay: flow cytometry of EVs bound to microbeads, NKp30-fc detected with Cy3 anti-human fc

## recombinant NKp30-fc fusion protein (from UniProt O14931 19-135)
  binding: binds
